PubChem BioAssay AID1224826 – NIAID | 2016
Here is a random part of about 17,000 reagents. About 1,110 of them (6.6%) were called active. 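Active means lowered or raised reporter signal; replicate intensities are raw and not normalised per plate.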 The numbers tell different reagents against one gene apart. Some reagents were tested in more than one well and are listed for each.

- Assay: 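Genes that change LPS-induced Tnf promoter activity in mouse macrophages when knocked down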 (primary screen)
- System: RAW264.7 G9 macrophages from mouse bearing reporters for p65 (GFP) and the Tnf promoter (mCherry)
- Reagents: siRNA pool against mouse genes, 100 nM
- Time to read-out: 16 h of LPS stimulation, after 2 days of siRNA transfection
- Treatment: bacterial lipopolysaccharide (Salmonella minnesota R595), 10 ng/ml
- Measured: 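Nuclear mCherry signal of the Tnf promoter reporter measured by imaging after background removal, scaled to each plate median and turned into robust z-scores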
- Direction: Tnf reporter robust z-score: higher = stronger Tnf promoter reporter signal after LPS; Tnf reporter intensity: higher = stronger Tnf promoter reporter signal
- Call rule: 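Called active when robust z-score is at most -1.3, matching the median of the Tlr4 knock-down control, or over 3; control wells and wells with under 50 cells never active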
- Calls: active = Tnf reporter clearly lowered or raised; inactive = no clear change in Tnf reporter

gene,reagent no.,Tnf reporter robust z-score,fewer than 50 cells in well,"Tnf reporter intensity, replicate 1","Tnf reporter intensity, replicate 2",activity call
Ndufa8,1,-0.38,enough cells in well,249,63.9,inactive
Ing4,1,-0.21,enough cells in well,214,145,inactive
Hoxd12,1,0.29,enough cells in well,256,211,inactive
Tmem126a,1,,fewer than 50 cells per well; well left out of calls,170,41.6,inactive
Serpinb6b,1,0.39,enough cells in well,94.6,135,inactive
Elp4,1,1.25,enough cells in well,265,89.7,inactive
Lrrd1,1,-0.07,enough cells in well,203,49.2,inactive
Stard7,1,2.49,enough cells in well,269,104,inactive
Cops7b,1,0.88,enough cells in well,255,212,inactive
Htra2,1,-1.37,enough cells in well,125,110,active
Or5d43,1,-0.65,enough cells in well,144,119,inactive
Abat,1,1.09,enough cells in well,227,203,inactive
Fmo5,1,0.75,enough cells in well,367,253,inactive
A230059G12Rik,1,-0.47,enough cells in well,170,101,inactive
Cpa1,1,-0.98,enough cells in well,156,137,inactive
Erlec1,1,-0.13,enough cells in well,198,99.8,inactive
Coa7,1,,fewer than 50 cells per well; well left out of calls,186,34.6,inactive
Bbs2,1,-1.02,enough cells in well,82.5,124,inactive
Eif3c,1,,fewer than 50 cells per well; well left out of calls,44.4,54.7,inactive
Brd8,1,-1.38,enough cells in well,70.4,96.6,active
Eepd1,1,,fewer than 50 cells per well; well left out of calls,94.4,52.2,inactive
Aard,1,-0.57,enough cells in well,134,129,inactive
Epgn,1,0.16,enough cells in well,299,119,inactive
Hyou1,1,0.13,enough cells in well,213,228,inactive
Tst,1,-0.69,enough cells in well,171,182,inactive
Epdr1,1,-0.5,enough cells in well,81.4,88.7,inactive
Epdr1,2,0.26,enough cells in well,196,169,inactive
Or2ag1b,1,,fewer than 50 cells per well; well left out of calls,224,191,inactive
Moxd2,1,-1.47,enough cells in well,37.8,72.2,active
Gaa,1,0.85,enough cells in well,332,301,inactive
Dlg3,1,-0.05,enough cells in well,195,177,inactive
Nim1k,1,1.38,enough cells in well,332,193,inactive
Sf1,1,0.12,enough cells in well,44.2,133,inactive
Or6c2b,1,,fewer than 50 cells per well; well left out of calls,67.4,44.7,inactive
Pafah1b1,1,-1.18,enough cells in well,137,116,inactive
Trav3-3,1,-0.01,enough cells in well,175,148,inactive
Exph5,1,0.32,enough cells in well,94.1,132,inactive
Cldn5,1,-0.6,enough cells in well,201,162,inactive
Wls,1,-1.23,enough cells in well,105,83.9,inactive
Utp25,1,-0.92,enough cells in well,97.3,128,inactive
Rgs16,1,0.69,enough cells in well,324,112,inactive
Cdk19,1,0.15,enough cells in well,168,198,inactive
Cdk19,1,0.23,enough cells in well,279,72.3,inactive
Ppef2,1,-0.59,enough cells in well,209,144,inactive
Serpinb1b,1,1.15,enough cells in well,125,141,inactive
Tbc1d23,1,0.4,enough cells in well,259,67.2,inactive
H2bc6,1,0.53,enough cells in well,287,114,inactive
Fam222b,1,-0.71,enough cells in well,157,157,inactive
Tmem128,1,2.2,enough cells in well,493,105,inactive
Ppp6r3,1,-0.32,enough cells in well,162,133,inactive
Tenm4,1,-0.45,enough cells in well,184,107,inactive
Sdf2l1,1,0.94,enough cells in well,168,168,inactive
Hip1r,1,0.25,enough cells in well,253,187,inactive
Wfdc15b,1,0.12,enough cells in well,122,188,inactive
Rbmx2,1,,fewer than 50 cells per well; well left out of calls,184,78.4,inactive
Sim2,1,-0.35,enough cells in well,229,205,inactive
Ppp6c,1,-0.39,enough cells in well,236,147,inactive
Dennd1b,1,-1.16,enough cells in well,106,96.5,inactive

No new results follow: entries from further up.
gene,reagent no.,Tnf reporter robust z-score,fewer than 50 cells in well,"Tnf reporter intensity, replicate 1","Tnf reporter intensity, replicate 2",activity call
Or5d43,1,-0.65,enough cells in well,144,119,inactive
Abat,1,1.09,enough cells in well,227,203,inactive
Fmo5,1,0.75,enough cells in well,367,253,inactive
A230059G12Rik,1,-0.47,enough cells in well,170,101,inactive
